Laboratory results published in PubChem BioAssay AID1671190 (National Center for Advancing Translational Sciences (NCATS), 2021).
About 6,100 (1.1%) of roughly 580,000 compounds were called active. All entries are inconclusive by the source's own rule. Clear calls are listed elsewhere. Calls come from the whole dose curve; as a rule, active = well fitted inhibition curve with a large enough effect; inconclusive = small, poorly fitted or top-dose-only effect, or another doubt; inactive = no such curve, though single readings can be large or run the other way.

Protein sequences, listed by entry. Tags and fused reporters are not part of them.
UniProt P18054, whole entry: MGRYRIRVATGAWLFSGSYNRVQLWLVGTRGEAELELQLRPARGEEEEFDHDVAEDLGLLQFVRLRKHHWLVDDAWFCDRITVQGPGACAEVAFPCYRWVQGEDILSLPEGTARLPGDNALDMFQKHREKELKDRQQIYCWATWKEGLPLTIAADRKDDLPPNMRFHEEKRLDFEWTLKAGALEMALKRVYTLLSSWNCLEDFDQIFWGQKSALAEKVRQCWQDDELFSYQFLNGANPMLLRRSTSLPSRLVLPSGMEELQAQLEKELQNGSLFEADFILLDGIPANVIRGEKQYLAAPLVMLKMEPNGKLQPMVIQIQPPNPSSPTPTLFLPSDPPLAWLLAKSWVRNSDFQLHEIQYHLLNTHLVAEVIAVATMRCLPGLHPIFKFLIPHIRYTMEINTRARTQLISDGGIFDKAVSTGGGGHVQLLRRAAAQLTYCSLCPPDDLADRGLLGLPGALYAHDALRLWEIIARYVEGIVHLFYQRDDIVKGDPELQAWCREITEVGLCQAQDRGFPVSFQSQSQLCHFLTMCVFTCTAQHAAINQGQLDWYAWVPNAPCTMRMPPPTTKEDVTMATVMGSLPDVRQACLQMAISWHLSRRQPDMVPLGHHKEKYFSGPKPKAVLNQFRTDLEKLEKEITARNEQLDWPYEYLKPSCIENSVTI

Target: Polyunsaturated fatty acid lipoxygenase ALOX12 (Homo sapiens) (UniProt P18054)
Experiment: Primary qHTS assay for inhibitors of human arachidonate 12S-lipoxygenase (ALOX12): Round 2
Details: purified 12hLO, xylenol orange hydroperoxide absorbance
Text: Assay Provider: Theodore R. Holman Ph.D. University of California, Santa Cruz, California Human lipoxygenase 12hLO is a member of the closely related lipoxygenase family of enzymes which catalyze the site-specific oxidation of arachidonic acid to various hormone precursor molecules and as such is a candidate for drug development in a variety of disease areas, such as cancer and inflammation. Inhibition of 12hLO activity was screened by utilizing arachidonic acid as a substrate. The extent of hydroperoxide product formation was measured by a secondary chromogenic reaction in which xylenol orange (XO, Sigma-Aldrich, cat. number 39,818-7) reacts with the ferric ions produced from the reaction between the hydroperoxide and ferrous ions. The Fe (III)-XO complex is characterized with red-shifted absorbance at 560 nm. A purified preparation of human 12hLO was supplied by Dr. Holman laboratory, University of California, Santa Cruz.
PROTOCOL TABLE SEQUENCE No. (e.g., 1, 2, 3, etc.); […] (e.g., Cells, Incubation, Reagent, etc.); VALUE; DESCRIPTION 1; Enzyme; 3 uL; 150 nM 12hLO enzyme solution dispensed in 1536-well Greiner black, clear bottom plates. 2; Compound; 23 nL; compounds and controls were added. 3; Incubate; 15 min; room temperature. 4; Substrate; 1 uL; 40 uM arachidonic acid (final concentration). 5; Incubate; 30 min; room temperature. 6; Reagent; 4 uL; Fe-XO solution was added to each well. 7; Incubation; 30 min; room temperature 8; Detector; absorbance; Read 1 at 405 nm absorbance using ViewLux (Perkin-Elmer) CCD imager. 9; Detector; absorbance; Read 2 at 573 nm absorbance using ViewLux (Perkin-Elmer) CCD imager. NOTES (numbers refer to sequence above) 1; 150 nM 12hLO (final concentration) in buffer solution (25 mM Hepes, 0.01% Triton X-100, pH 7.0) was dispensed in columns 1, 2, 5-48. Column 1 is neutral (100% activity). Buffer only was dispensed in columns 3 and 4 as no enzyme negative controls. The plates were covered with metal lids with gas-exchange holes. 2; Compounds were pin transferred via a Kalypsys Pin Tool (Wako USA) in column 5-48. Control compound was transferred in column 2, titration of nordihydroguaiaretic acid (NDGA, Sigma-Aldrich, N5023) with top concentration of 20 mM in DMSO then 1:3 dilution in duplicate. Dilution factor of 23 nL into 4 uL final assay volume. 3; Covered assay plates were incubated for 15 min at room temperature. 4; Substrate was added to start the reaction; 40 uM arachidonic acid (Sigma-Aldrich, St. Louis, MO) was dispensed throughout the plate. 6; Chromogenic detection reagent solution (divalent iron/xylenol orange, Fe-XO) was added to each well: 200 uM xylenol orange, 300 uM ferrous ammonium sulfate prepared freshly in 50 mM sulfuric acid. 8, 9; Two absorbance readouts were obtained at 405 nm and at 573 nm using a ViewLux high-throughput CCD plate imager (Perkin-Elmer). The 573 to 405 (Read 2 / Read 1) absorbance ratio was used to compute reaction progress.
Potency is the fitted concentration of half-maximal effect.

Structure (SMILES)	Potency
Cc1cc(C)cc(OP(C)(=O)Nc2ccc(SC(F)(F)F)cc2)c1 (centres undefined)	inconclusive: 79.4 µM
CP(=O)(Nc1ccc(SC(F)(F)F)cc1)Oc1ccc(Cl)cc1 (centres undefined)	inconclusive: 70.8 µM
O=[N+]([O-])c1cc([N+](=O)[O-])c(Nc2cccnc2)c([N+](=O)[O-])c1	inconclusive: 44.7 µM
COc1ccccc1-c1ccccn1.O=[N+]([O-])c1cc([N+](=O)[O-])c(O)c([N+](=O)[O-])c1	inconclusive: 89.1 µM
Cc1ccc(C)c(NP(C)(=O)Oc2ccccc2)c1 (centres undefined)	inconclusive: 126 µM
COc1ccc(-c2ccccn2)cc1.O=[N+]([O-])c1cc([N+](=O)[O-])c(O)c([N+](=O)[O-])c1	inconclusive: 8.91 µM
CN(Cc1cccnc1)C(=O)COc1ccc(Cl)c(Cl)c1.O=[N+]([O-])c1cc([N+](=O)[O-])c(O)c([N+](=O)[O-])c1	inconclusive: 35.5 µM
O=[N+]([O-])c1cc([N+](=O)[O-])c(-n2nnc3ccccc32)c([N+](=O)[O-])c1	inconclusive: 50.1 µM
Cc1nc2ccc3ccccc3c2s1.O=[N+]([O-])c1cc([N+](=O)[O-])c(O)c([N+](=O)[O-])c1	inconclusive: 31.6 µM
Cc1cc(-c2cccc3ccccc23)c(C)cn1.O=[N+]([O-])c1cc([N+](=O)[O-])c(O)c([N+](=O)[O-])c1	inconclusive: 56.2 µM
CCCCCOc1ccc(NP(C)(=O)Oc2ccc(Cl)cc2Cl)cc1 (centres undefined)	inconclusive: 112 µM
CCN(CC)CCCOC(=O)C(O)(c1ccccc1)C1CCCCC1 (centres undefined)	inconclusive: 44.7 µM
Cc1c([N+](=O)[O-])cc([N+](=O)[O-])c(Br)c1[N+](=O)[O-]	inconclusive: 39.8 µM
CC(C)c1ccc(OP(C)(=O)Nc2ccc(SC(F)(F)F)cc2)cc1 (centres undefined)	inconclusive: 14.1 µM
CP(=O)(Nc1ccccc1F)Oc1ccccc1 (centres undefined)	inconclusive: 25.1 µM
O=C(OCCN1CCN(CCOCc2ccccc2)CC1)C(O)(c1ccccc1)c1ccccc1	inconclusive: 56.2 µM
CCCCCCCCCCCCCCCC1C[N+](C)(C)CCOP(C)(=O)O1 (centres undefined)	inconclusive: 44.7 µM
CCN(CC)CC(O)COC(=O)C(O)(c1ccccc1)C1CCCCC1 (centres undefined)	inconclusive: 50.1 µM
CC(C)(C)c1ccc(OP(C)(=O)O)cc1	inconclusive: 112 µM
